Experimental data published in paper PMC12040169 (PLOS Biology, 2025).
The list shows a part of the results.

The compounds below were run on T1, CTL2-GFP (C. trachomatis L2/434/Bu, GFP-expressing). Conditions: bulk GFP, single well; 28.5 h, 10 µM; inhibitor.
T1 construct: L2/434/Bu, GFP-expressing
Parameters: species or system HeLa; Intracellular C. trachomatis growth in HeLa cells, bulk GFP fluorescence relative to DMSO

SMILES | % of control remaining [%]
COc1ccccc1-c1nc(SCc2ccc(C(=O)O)cc2)n[nH]1 [CBK266631] | 155.114
Oc1ccc(SCCCCCN2CCCCC2)cc1 [CBK261488] | 80.6759
NC(=O)C1(Cc2ccccc2-c2cccc(F)c2)CCN(C(=O)c2cccc(F)c2)CC1 [CBK285693] | 121.025
Cc1nnc(N2CCn3nc(C(O)Cc4ccccc4)cc3C2)s1 (centres unmarked) [CBK307152] | 108.442
Cc1ccc(Nc2cc(-c3cc4ccccc4o3)ncn2)cc1NS(C)(=O)=O [CBK091148] | 55.3241
O=C(OCc1ccccc1)N1CCC(C2OCc3cc(-c4ccc(C(=O)N5CCCC5)cc4)ccc3O2)CC1 (centres unmarked) [CBK153260] | 137.565
Cc1c(CNCCN2CCN(C)CC2c2ccccc2)cnn1C (centres unmarked) [CBK304056] | 144.431
Cn1c(=O)[nH]c(=O)c2c1nc(CN1CCOCC1)n2Cc1ccc(F)cc1 [CBK270040] | 147.343
CC(C)(C)C1CCc2c(sc(NC(=O)CCC(=O)O)c2C(=O)Nc2ccccc2C(F)(F)F)C1 (centres unmarked) [CBK264143] | 132.168
CC(C)c1noc([C@@H]2C[C@H](NS(=O)(=O)c3ccc(F)cc3)CN2C)n1 [CBK288864] | 133.369
CCN(CCc1nc2cc(OC)ccc2[nH]1)C(=O)c1ccc(=O)n(C)n1 [CBK307712] | 141.317
CCCCNC(=O)NC(=O)C1CCN(CCCOc2ccccc2)CC1 [CBK035198] | 78.4878
COc1ccc(N2CCN(CC(=O)N3c4ccccc4Sc4ccccc43)CC2)cc1 [CBK269398] | 118.941
Cc1ccc(-n2c(SCC(=O)Nc3ccc(C)c([N+](=O)[O-])c3)nnc2-c2ccccc2O)c(C)c1 [CBK268769] | 100.916
O=C(NC1Cc2ccccc2C1)c1cncnc1 [CBK200262] | 98.0291
NC(=O)c1cc([N+](=O)[O-])ccc1NCCN1C(=O)c2ccc(C(=O)O)cc2C1=O [CBK264444] | 130.444
CC(C)C[C@H]1NC(=O)C2(C/C=C/C[C@@H]3COCC[C@@H]3NC1=O)CCN(C(=O)[C@@H](N)Cc1c[nH]c3ccccc13)CC2 [CBK292200] | 112.552
C/C(CCS(=O)(=O)c1ccc(Br)cc1)=N\NC(N)=S [CBK261370] | 58.6754
O=C(Nc1cccc(Cl)c1)Nc1ccccc1NC(=O)Nc1cccc(Cl)c1 [CBK267624] | 119.06
CCOC(=O)N1CCN(CCCCc2ccc(F)cc2)CC1 [CBK025002C] | 150.076
O=C(Nc1cc(Cl)ccc1Cl)c1ncn[nH]1 [CBK028834] | 134.649
Cc1ccc(OCc2nc(C#N)c(NCCCN3CCOCC3)o2)cc1 [CBK266423] | 121.66
O=C(O)Cc1ccc(NC(=O)CN2C(=O)c3ccccc3C2=O)cc1 [CBK268562] | 150.314
FC(F)(F)c1cc(-c2cn3ccnc3c(NCCc3cccnc3)n2)cc(C(F)(F)F)c1 [CBK066146] | 113.571
CCOc1ccc2ccccc2c1CNCc1cccnc1 [CBK269934C] | 164.717

Ordered by length of the SMILES (descending): part of the list above
SMILES | % of control remaining [%]
Cn1c(=O)[nH]c(=O)c2c1nc(CN1CCOCC1)n2Cc1ccc(F)cc1 [CBK270040] | 147.343
CCCCNC(=O)NC(=O)C1CCN(CCCOc2ccccc2)CC1 [CBK035198] | 78.4878
O=C(NC1Cc2ccccc2C1)c1cncnc1 [CBK200262] | 98.0291

Next compounds follow:

SMILES | % of control remaining [%]
O=C(CN1CCN(c2nc3cc(Cl)ccc3s2)CC1)c1ccc2c(c1)OCCCO2 [CBK074737] | 92.7174
COc1ccc(/C=C/C(=O)O)cc1S(=O)(=O)N1CCCCCC1 [CBK263565] | 100
Cc1noc(C)c1S(=O)(=O)Nc1ccnn1C [CBK062073] | 95.6348
Cc1n[nH]c(C)c1CNC(=O)c1cc2ccc(F)cc2[nH]1 [CBK283147] | 110.399
Cc1cc2cn([C@H]3C[C@@H](O)[C@@H](CO)O3)c(=O)nc2[nH]1 [CBK201302] | 132.658
COc1ccnc(N2CCc3c(ncn3C3CC3)C2)n1 [CBK304816] | 135.434
O=C(Cn1ncc2ccccc2c1=O)N1CCC(c2ccccc2)C1 (centres unmarked) [CBK281843] | 120.86
COc1ccc(N2CC(C(=O)Nc3ccc(C(=O)O)cc3)CC2=O)cc1 (centres unmarked) [CBK268782] | 156.909
COc1ccc(C[C@@H]2NC(=O)[C@H]3CN(C(=O)Nc4cccc(OC)c4)CCN3C2=O)cc1 [CBK289617] | 114.381
CC(C)C(=O)Nc1cc2cccnc2nc1-c1ccsc1 [CBK073649] | 107.924
CC(C)NC(=O)Nc1ccc(C(=O)N(CCC#N)C(C)C2CC2)cc1 (centres unmarked) [CBK305312] | 110.114
O=C(Nc1nc2ccccc2[nH]1)c1ccc(N2CCCS2(=O)=O)cc1 [CBK304582] | 97.5582
O=C(O)Cc1sc(-c2ccc3c(c2)OCO3)nc1-c1ccccc1 [CBK200114] | 131.359
O=C(CSc1nnc(-c2ccco2)c(-c2ccco2)n1)Nc1ccccc1[N+](=O)[O-] [CBK265762] | 148.548
COc1ccc2nc(NCc3ccccc3)sc2c1 [CBK287485] | 152.364
CCOC(=O)Cn1c(C)nc2ccccc21 [CBK115311] | 91.7413
c1ccc(-c2nc3cc4ccccc4cc3[nH]2)nc1 [CBK000130] | 22.5821
Cc1ccc(CNCc2cc3c(C)nn(-c4ccccc4)c3[nH]c2=O)o1 [CBK282896] | 124.798
CC1(C)C(=O)Nc2ccccc2N1C(=O)COc1ncnc2sc3c(c12)CCC3 [CBK297530] | 101.233
O=C1NCCN1CCOc1nccnc1-c1cnn(Cc2ccccc2)c1 [CBK107094] | 188.38
Cc1nc2cccnc2n1C1CCN(C(=O)C(C)(C)C)CC1 [CBK282426] | 116.711
Cc1ccccc1CNC(=O)CCc1c(C)nc2nc(N)nn2c1C [CBK304987] | 140.698
Fc1cccc(-c2nc3c(s2)CN(C2CCOCC2)CC3)c1 [CBK281647] | 132.933
O=C(CNS(=O)(=O)c1ccc(Br)cc1)NCc1cccnc1 [CBK266295] | 182.89
CCn1nc(C)c(NC(=O)CN(C)Cc2ccccc2C(F)(F)F)c1C [CBK306771] | 102.571
